According to PubChem BioAssay AID817 (Emory University Molecular Libraries Screening Center, 2007):
Some of the results follow.

Assay: restorers of sdo1-deficient yeast growth – S. cerevisiae, bone marrow failure model, primary screen (AID 817);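 further: z-score against mean and SD of all compound wells on the same plate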
Conditions: S. cerevisiae sdo1-depleted JHY4D growth rescue, OD600; measured here: growth rescue at 24 h; at 10 µM; stronger effect = higher value; pdr5 snq2 efflux-pump mutant strain

Row | Structure (SMILES) | z-score
1 | Cc1ccc2nc3c(c(C)c2c1)CC(C(Cl)Cl)S3 (stereo not given) | -1.02
2 | O=[N+]([O-])c1cc([N+](=O)[O-])c(-c2ccn[nH]2)s1 | -1.99
3 | COc1ccc(OP(C)(=O)Nc2cccc(F)c2)cc1 (stereo not given) | -0.27
4 | CCN(CC)C(=S)SC(NC=O)C(Cl)(Cl)Cl (stereo not given) | -0.77
5 | ClCCSc1nnc(-c2cccnc2)o1 | 2.86
6 | CCOC(=O)c1ccc(NP(C)(=O)Oc2ccccc2)cc1 (stereo not given) | -0.27
7 | Cc1ccc(NP(C)(=O)Oc2ccccc2)c(C)c1 (stereo not given) | 1.25
8 | COc1ccccc1OP(C)(=O)Nc1ccc(C)cc1 (stereo not given) | 0.84
9 | Cc1cc(SC(NC(=O)c2ccccc2)C(Cl)(Cl)Cl)nc(C(C)C)n1 (stereo not given) | -0.61
10 | CP(=O)(Nc1ccccc1Br)Oc1ccccc1 (stereo not given) | -0.36
11 | CP(=S)(Nn1cnnc1)Oc1ccccc1 (stereo not given) | 0.88
12 | Cc1cc(C)cc(OP(C)(=O)Nc2ccc(SC(F)(F)F)cc2)c1 (stereo not given) | -0.21
13 | O=C(COc1ccccc1)OC1CN2CCC1CC2 (stereo not given) | 0.02
14 | CP(=O)(NC(=O)Nc1ccccc1)Oc1ccccc1 (stereo not given) | -0.2
15 | Cc1cccc(C)c1OP(C)(=O)Nc1ccc(SC(F)(F)F)cc1 (stereo not given) | -1.55
16 | COP1(=S)c2c(C)nn(CCC#N)c2N=C(c2ccc(F)cc2)N1C (stereo not given) | 0.1
17 | CCC(C)N(CC(C)C)C(=S)SC(NC(C)=O)C(Cl)(Cl)Cl (stereo not given) | -1.66
18 | CP(=O)(Nc1ccccn1)Oc1ccc(Cl)cc1 (stereo not given) | -0.43
19 | CCOP(C)(=S)SCC(=O)NC(C)C(=O)O (stereo not given) | -0.01
20 | CCOC(=O)c1ccc(NP(C)(=O)Oc2ccc(OC)cc2)cc1 (stereo not given) | -1.57
